The target in test [1] is AmyR (Penicillium oxalicum 114-2) (UniProt S8ASG9). The experiment in a line: two-hybrid; Matchmaker GAL4 two-hybrid system 3; AD-X (pGAD-T7) and BD-X (pGBK-T7) co-transformed into S. cerevisiae AH109; growth on SD plates without Leu, Trp and His (legend: SD/-Ade/-His/-Leu/-Trp).
For test [2], the target named is XlnR (Penicillium oxalicum 114-2) (UniProt S7ZQM9). The test is described as above.

Data on three substances can be found in PMC4567317.

These are yes or no findings as the source states them, for the method shown. A result given as binding can be weak or reduced; the word gives no strength.

As for ClrB (from UniProt S7ZK86), the binding result in test [1] and in test [2] was “binds” in each case.
Consider AmyR (from UniProt S8ASG9), for which the binding entry in test [2] is “binds”.
On to CreA (from UniProt S8B1J6), for which the binding entry in test [2] is given as “binds”.
